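Plate-reader measure of the Venus reporter marking one vaccinia stage in infected cells (the cell line is not named here); read time unknown. The test concentration is not given here. Percent change in Venus reporter signal; lower (more negative) values mean stronger inhibition of that viral stage.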

Values are in %. How 0% and 100% were set is not given here. Common to all entries: measured here: Venus reporter, other viral stage. This is a side read-out of the assay, for part of the compounds, not drawn at random.

structure,activity change (Venus) (%)
C[C@@H]1CN([C@@H](C)CO)C(=O)Cc2cc(NC(=O)C3CCCCC3)ccc2O[C@@H]1CN(C)Cc1ccc(C(F)(F)F)cc1,-25.19
CO[C@@H]1CN(C)C(=O)c2cc(NC(=O)c3ccc(Oc4ccccc4)cc3)ccc2OC[C@H](C)NC[C@H]1C,-76.93
C[C@@H]1CN([C@H](C)CO)C(=O)c2cc(NC(=O)Nc3ccc(F)cc3)ccc2O[C@@H](C)CCCCO[C@@H]1CN(C)CC1CCCCC1,-45.13
N#Cc1cccc(-c2ccc([C@@H]3[C@@H](CO)N4CCCCN(C(=O)Nc5ccc(F)cc5)C[C@@H]34)cc2)c1,-40.99
Cc1cccc(S(=O)(=O)N2CCCCN3[C@H](CO)[C@@H](c4ccc(C#CC5CC5)cc4)[C@H]3C2)c1,-38.32
C[C@@H]1CN([C@@H](C)CO)C(=O)c2cc(NS(=O)(=O)c3ccc(Cl)cc3)ccc2O[C@@H](C)CCCCO[C@H]1CN(C)C(=O)C1CCCCC1,-58.91
Cc1ccccc1S(=O)(=O)N1CCCCN2[C@@H](CO)[C@@H](c3ccc(-c4cccnc4)cc3)[C@@H]2C1,-32.41
CO[C@@H]1CN(C)C(=O)c2cc(NC(=O)Nc3ccc(Cl)cc3)ccc2OC[C@@H](C)N(C)C[C@@H]1C,-38.24
CC(C)CC#Cc1ccc2c(c1)O[C@@H](CN(C)Cc1ccccn1)[C@H](C)CN([C@@H](C)CO)S2(=O)=O,-45.44
CCCNC(=O)C[C@@H]1CC[C@H]2[C@H](COc3ccc(NC(=O)c4ccc(Cl)cc4)cc3C(=O)N2C)O1,-35.13
CCCN(C)C[C@@H]1Oc2ncc(C#CC3CCCCC3)cc2C(=O)N([C@@H](C)CO)C[C@H]1C,-34.58
C[C@@H]1CN([C@H](C)CO)C(=O)c2cc(NS(=O)(=O)c3ccc(F)cc3)ccc2O[C@@H](C)CCCCO[C@H]1CN(C)Cc1ccc(C(F)(F)F)cc1,-76.85
CC(C)C#Cc1ccc([C@H]2[C@@H](CO)N3CCCCN(S(=O)(=O)Cc4ccccc4)C[C@H]23)cc1,-36.03
C[C@H]1CN([C@@H](C)CO)S(=O)(=O)c2ccc(C#CC3CC3)cc2O[C@H]1CN(C)Cc1cccc(F)c1,-41.95
Cc1ccc(-c2ccc3c(c2)O[C@H](CN(C)C(=O)Nc2ccc(F)cc2)[C@H](C)CN([C@@H](C)CO)S3(=O)=O)cc1,-62.7
COc1ccc(C#Cc2ccc3c(c2)O[C@H](CN(C)C(=O)CN2CCOCC2)[C@H](C)CN([C@@H](C)CO)S3(=O)=O)cc1,-28.08
O=C(C1CCCC1)N1CCCCN2[C@@H](CO)[C@H](c3ccc(-c4cccc(F)c4)cc3)[C@@H]2C1,-35.39
C[C@H]1CN([C@@H](C)CO)C(=O)c2cc(NC(=O)Nc3ccc(C(F)(F)F)cc3)ccc2O[C@@H]1CN(C)Cc1ccc2c(c1)OCO2,-40.14
COc1ccccc1CN(C)C[C@H]1OCc2ccccc2-c2c(n(C)c3ccccc23)C(=O)N([C@@H](C)CO)C[C@H]1C,-56.26
C[C@H]1CCCCO[C@@H](CN(C)Cc2ccc(C(F)(F)F)cc2)[C@@H](C)CN([C@@H](C)CO)C(=O)c2cc(NS(=O)(=O)c3cn(C)cn3)ccc2O1,-37.31
CCCN(C)C[C@H]1Oc2cc(/C=C/c3ccccc3)ccc2S(=O)(=O)N([C@H](C)CO)C[C@H]1C,-38.62
C[C@H]1CCCCO[C@H](CN(C)Cc2ccc(C(F)(F)F)cc2)[C@@H](C)CN([C@@H](C)CO)C(=O)c2cc(NC(=O)c3ccccc3)ccc2O1,-39.93
CO[C@H]1CN(C)C(=O)c2cc(NC(=O)c3ccc(-c4ccccc4)cc3)ccc2OC[C@@H](C)NC[C@@H]1C,-89.77
O=S(=O)(N[C@@H]1CCCN(Cc2ccc(OCCO)cc2)C1)c1ccc(-c2ccccc2)cc1,-47.65
C[C@@H]1CN([C@@H](C)CO)C(=O)c2cc(/C=C/c3ccccc3)cnc2O[C@@H]1CN(C)S(=O)(=O)c1cccs1,-21.56
C[C@@H]1CN([C@H](C)CO)C(=O)c2cc(NS(=O)(=O)c3ccc(F)cc3)ccc2O[C@@H]1CN(C)Cc1ccc(Oc2ccccc2)cc1,-37.32
Cc1noc(C)c1S(=O)(=O)N(C)C[C@@H]1OCCCC[C@H](C)Oc2ccc(NC(=O)C3CCCCC3)cc2C(=O)N([C@H](C)CO)C[C@H]1C,-33.66
N#Cc1cccc(-c2ccc(C3[C@H]4CNC[C@@H]3N4Cc3cc(-c4ccccc4)on3)cc2)c1 (stereo partly specified),-76.21
OC[C@H]1[C@@H](c2ccc(C#Cc3cccnc3)cc2)[C@@H]2CN(Cc3ccccc3F)CCCCN12,-58.09
C[C@H]1CCCCO[C@@H](CN(C)C(=O)Nc2ccc(C(F)(F)F)cc2)[C@@H](C)CN([C@@H](C)CO)C(=O)c2cc(NS(C)(=O)=O)ccc2O1,-42.53
Cc1ccc(-c2ccc([C@H]3[C@H]4CN(C(=O)Nc5cccc(F)c5)CC(=O)N4[C@H]3CO)cc2)cc1,-43.96
CC(C)NC(=O)Nc1ccc2c(c1)C(=O)N([C@H](C)CO)C[C@H](C)[C@@H](CN(C)Cc1ccc(C(F)(F)F)cc1)OCCCC[C@H](C)O2,-54.59
Cc1ccc(S(=O)(=O)N(C)C[C@H]2OCCCC[C@@H](C)Oc3ccc(NS(=O)(=O)c4ccc(F)cc4)cc3C(=O)N([C@@H](C)CO)C[C@H]2C)cc1,-35.88
Cc1cc(C(=O)Nc2cccc3c2O[C@@H](CN(C)Cc2ccc(Oc4ccccc4)cc2)[C@H](C)CN([C@H](C)CO)C3=O)n(C)n1,-44.27
C[C@@H]1CN([C@H](C)CO)C(=O)c2cc(C#Cc3ccccc3)cnc2O[C@@H]1CN(C)S(=O)(=O)c1ccccc1F,-35.83

The first 2 entries again:

structure,activity change (Venus) (%)
C[C@@H]1CN([C@@H](C)CO)C(=O)Cc2cc(NC(=O)C3CCCCC3)ccc2O[C@@H]1CN(C)Cc1ccc(C(F)(F)F)cc1,-25.19
CO[C@@H]1CN(C)C(=O)c2cc(NC(=O)c3ccc(Oc4ccccc4)cc3)ccc2OC[C@H](C)NC[C@H]1C,-76.93

Source: PubChem BioAssay AID1053133 (Broad Institute, 2014).